Laboratory results as given in the supplement of paper PMC12823440, “Inhibitors supercharge kinase turnover through native proteolytic circuits” (Nature, 2025).
Where a name gives a salt, the structure may show the parent alone. This is one part of the list. The calls rarely recur for the same compound in another form.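 Kinases were expressed as nanoluciferase fusions in K562 cells and luminescence was read every 4 h between 2 and 18 h as percent of control, DMSO set to 100% and a positive control to 0%. A time point counts as decreased when the signal drops significantly (2 sigma). The hit call is the authors' own, does not follow from the count of time points alone, and its rule is not shown.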

Chains of the proteins cited; added tags and fusions are not shown. Lines headed by an entry give the natural chain unless they say otherwise; changes in a name come on top.
UniProt P50613: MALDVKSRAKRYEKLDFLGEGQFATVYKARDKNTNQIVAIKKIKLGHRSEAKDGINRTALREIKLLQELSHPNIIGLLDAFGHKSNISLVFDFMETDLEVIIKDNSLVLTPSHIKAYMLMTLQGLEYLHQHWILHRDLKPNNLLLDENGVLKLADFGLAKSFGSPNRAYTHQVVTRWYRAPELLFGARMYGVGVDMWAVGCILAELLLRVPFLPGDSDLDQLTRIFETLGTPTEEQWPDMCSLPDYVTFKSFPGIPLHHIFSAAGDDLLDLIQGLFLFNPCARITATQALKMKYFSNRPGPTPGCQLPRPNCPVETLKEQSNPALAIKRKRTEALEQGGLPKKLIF
UniProt P50750, whole entry: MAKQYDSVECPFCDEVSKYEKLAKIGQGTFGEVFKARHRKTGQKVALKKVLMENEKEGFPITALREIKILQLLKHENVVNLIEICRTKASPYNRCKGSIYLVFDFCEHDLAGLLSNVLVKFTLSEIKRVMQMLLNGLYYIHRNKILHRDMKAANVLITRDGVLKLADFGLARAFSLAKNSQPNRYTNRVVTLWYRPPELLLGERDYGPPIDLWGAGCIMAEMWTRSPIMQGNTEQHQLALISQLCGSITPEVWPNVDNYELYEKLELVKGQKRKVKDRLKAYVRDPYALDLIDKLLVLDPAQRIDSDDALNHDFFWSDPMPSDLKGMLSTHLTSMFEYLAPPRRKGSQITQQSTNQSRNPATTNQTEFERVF
UniProt O96017, whole entry: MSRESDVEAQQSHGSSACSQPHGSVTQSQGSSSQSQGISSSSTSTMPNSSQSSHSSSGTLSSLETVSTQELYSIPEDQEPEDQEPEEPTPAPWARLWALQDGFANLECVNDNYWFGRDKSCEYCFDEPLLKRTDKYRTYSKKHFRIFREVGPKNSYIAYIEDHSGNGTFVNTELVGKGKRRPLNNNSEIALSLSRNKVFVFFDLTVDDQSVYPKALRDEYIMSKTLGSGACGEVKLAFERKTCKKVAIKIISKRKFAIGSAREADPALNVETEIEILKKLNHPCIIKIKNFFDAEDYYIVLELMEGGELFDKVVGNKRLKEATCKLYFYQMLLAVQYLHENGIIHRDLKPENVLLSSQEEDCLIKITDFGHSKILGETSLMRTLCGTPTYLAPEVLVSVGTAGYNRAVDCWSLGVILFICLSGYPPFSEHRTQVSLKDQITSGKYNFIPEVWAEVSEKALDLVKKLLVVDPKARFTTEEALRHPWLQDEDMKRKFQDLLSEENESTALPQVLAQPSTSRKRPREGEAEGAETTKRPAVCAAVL
UniProt P07333, whole entry: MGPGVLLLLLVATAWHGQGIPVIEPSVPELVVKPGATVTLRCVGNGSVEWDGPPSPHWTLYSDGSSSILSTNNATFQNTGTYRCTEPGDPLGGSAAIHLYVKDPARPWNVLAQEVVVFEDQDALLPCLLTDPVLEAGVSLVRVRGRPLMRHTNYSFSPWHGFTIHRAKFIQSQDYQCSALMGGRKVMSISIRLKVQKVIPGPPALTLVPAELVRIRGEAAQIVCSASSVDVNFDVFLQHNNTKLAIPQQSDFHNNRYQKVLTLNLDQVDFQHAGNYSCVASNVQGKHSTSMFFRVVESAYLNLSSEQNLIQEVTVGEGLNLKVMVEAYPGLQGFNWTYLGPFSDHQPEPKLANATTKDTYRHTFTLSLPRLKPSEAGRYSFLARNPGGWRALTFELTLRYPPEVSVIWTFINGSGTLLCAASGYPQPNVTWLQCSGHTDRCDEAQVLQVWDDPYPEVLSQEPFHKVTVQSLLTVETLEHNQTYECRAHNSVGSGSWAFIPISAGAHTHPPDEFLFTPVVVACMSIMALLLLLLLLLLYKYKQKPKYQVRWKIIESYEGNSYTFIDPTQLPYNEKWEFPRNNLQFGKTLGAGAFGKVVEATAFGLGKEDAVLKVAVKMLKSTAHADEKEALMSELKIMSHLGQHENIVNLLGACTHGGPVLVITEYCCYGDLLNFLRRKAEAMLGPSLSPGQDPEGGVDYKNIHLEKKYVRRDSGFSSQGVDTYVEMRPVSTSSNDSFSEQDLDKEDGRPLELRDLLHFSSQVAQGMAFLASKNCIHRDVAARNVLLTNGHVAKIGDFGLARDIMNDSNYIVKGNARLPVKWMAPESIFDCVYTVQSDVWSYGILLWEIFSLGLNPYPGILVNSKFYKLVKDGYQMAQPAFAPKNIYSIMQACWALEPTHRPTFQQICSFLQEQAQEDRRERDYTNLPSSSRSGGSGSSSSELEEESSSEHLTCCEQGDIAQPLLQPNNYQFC
UniProt P41240: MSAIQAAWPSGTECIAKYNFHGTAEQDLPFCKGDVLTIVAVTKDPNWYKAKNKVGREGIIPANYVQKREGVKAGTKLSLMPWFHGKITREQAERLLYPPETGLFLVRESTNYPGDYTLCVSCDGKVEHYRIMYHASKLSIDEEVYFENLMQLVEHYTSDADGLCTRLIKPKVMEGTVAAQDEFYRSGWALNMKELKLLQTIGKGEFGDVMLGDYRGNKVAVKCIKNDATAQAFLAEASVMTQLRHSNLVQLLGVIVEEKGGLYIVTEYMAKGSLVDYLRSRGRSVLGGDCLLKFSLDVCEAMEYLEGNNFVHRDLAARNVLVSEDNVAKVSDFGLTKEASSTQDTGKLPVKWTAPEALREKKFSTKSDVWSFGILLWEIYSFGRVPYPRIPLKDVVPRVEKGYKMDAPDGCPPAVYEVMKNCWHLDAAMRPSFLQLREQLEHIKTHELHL
UniProt P48729: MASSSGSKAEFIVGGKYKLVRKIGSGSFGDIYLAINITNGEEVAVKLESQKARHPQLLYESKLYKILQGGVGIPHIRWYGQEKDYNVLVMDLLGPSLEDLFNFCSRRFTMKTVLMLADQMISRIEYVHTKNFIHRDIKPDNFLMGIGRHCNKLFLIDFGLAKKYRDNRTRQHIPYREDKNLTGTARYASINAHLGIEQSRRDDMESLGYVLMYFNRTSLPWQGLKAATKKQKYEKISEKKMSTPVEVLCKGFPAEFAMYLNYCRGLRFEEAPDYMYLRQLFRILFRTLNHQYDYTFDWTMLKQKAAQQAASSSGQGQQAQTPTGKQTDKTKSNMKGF
UniProt P48730: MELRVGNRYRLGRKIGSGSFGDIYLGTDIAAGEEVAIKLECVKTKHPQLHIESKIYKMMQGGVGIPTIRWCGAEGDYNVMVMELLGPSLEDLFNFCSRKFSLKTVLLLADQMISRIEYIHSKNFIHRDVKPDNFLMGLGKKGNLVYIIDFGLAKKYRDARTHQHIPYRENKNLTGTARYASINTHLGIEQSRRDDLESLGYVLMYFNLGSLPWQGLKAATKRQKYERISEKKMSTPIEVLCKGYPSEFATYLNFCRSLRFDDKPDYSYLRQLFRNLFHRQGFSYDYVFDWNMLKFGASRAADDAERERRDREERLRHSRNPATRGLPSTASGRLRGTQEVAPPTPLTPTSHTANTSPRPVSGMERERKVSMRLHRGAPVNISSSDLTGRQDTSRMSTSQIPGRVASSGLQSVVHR
UniProt Q08345: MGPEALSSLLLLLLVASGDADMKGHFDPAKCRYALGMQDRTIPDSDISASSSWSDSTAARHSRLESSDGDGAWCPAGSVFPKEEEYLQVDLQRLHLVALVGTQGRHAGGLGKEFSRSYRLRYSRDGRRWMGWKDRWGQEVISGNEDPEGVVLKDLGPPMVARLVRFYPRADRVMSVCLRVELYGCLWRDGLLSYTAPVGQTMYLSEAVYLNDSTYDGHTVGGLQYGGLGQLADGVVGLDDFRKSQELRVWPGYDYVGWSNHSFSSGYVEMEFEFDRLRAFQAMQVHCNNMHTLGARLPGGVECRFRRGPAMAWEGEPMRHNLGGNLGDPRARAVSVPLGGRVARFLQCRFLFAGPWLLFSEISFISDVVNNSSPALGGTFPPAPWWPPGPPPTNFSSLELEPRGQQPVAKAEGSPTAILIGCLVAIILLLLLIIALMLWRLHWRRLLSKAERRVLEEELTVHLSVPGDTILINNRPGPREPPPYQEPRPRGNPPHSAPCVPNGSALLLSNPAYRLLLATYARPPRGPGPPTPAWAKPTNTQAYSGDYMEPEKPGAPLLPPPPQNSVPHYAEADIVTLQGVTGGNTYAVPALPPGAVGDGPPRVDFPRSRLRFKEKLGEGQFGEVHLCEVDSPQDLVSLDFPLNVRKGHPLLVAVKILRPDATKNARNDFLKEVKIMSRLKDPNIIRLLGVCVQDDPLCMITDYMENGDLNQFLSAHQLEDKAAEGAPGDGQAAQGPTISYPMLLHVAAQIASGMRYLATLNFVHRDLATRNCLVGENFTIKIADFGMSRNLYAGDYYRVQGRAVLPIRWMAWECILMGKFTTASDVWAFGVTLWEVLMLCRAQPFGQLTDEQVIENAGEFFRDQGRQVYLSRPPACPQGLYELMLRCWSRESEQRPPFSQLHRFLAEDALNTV
UniProt Q9Y463, whole entry, looked up: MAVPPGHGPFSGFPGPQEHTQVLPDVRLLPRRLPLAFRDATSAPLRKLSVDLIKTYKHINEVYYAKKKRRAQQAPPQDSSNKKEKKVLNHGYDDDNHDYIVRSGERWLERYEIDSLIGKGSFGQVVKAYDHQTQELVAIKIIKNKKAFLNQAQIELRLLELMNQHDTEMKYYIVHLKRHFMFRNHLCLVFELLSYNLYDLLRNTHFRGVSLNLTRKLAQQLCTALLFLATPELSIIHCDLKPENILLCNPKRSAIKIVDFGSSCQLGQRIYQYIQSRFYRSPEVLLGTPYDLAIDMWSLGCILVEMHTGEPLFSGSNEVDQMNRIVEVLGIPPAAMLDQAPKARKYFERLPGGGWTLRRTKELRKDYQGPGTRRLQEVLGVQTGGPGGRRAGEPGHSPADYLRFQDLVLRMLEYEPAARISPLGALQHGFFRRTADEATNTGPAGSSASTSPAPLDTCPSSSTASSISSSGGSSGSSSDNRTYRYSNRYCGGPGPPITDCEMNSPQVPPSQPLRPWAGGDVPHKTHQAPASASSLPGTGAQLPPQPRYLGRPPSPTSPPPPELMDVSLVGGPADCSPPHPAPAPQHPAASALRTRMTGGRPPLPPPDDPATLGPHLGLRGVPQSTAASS
UniProt Q92630: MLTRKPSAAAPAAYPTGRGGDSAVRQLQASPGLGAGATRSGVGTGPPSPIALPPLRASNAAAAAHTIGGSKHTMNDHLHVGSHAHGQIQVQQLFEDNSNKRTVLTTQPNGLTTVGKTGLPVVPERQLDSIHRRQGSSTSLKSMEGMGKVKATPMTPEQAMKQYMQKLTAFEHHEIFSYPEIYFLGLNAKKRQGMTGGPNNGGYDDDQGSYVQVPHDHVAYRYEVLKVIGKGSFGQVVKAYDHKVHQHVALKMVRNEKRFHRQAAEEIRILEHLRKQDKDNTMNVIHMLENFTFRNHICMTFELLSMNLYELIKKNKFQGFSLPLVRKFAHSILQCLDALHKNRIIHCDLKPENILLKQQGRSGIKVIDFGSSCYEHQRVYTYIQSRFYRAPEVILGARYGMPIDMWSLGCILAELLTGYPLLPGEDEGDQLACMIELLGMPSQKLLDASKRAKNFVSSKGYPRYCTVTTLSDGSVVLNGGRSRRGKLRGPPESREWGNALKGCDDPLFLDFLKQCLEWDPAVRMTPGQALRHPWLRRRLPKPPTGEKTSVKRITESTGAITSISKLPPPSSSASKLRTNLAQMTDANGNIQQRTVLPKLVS

Tests used:
Assay in all cases: kinase-Nluc reporter destabilization hit call (1 = scored as downregulated) (binary); higher = compound decreases kinase abundance
Conditions in all cases: K562, 2-18 h
CDK7 = CDK7 (UniProt P50613)
CDK9 = CDK9 (UniProt P50750)
CHEK2 = CHEK2 (UniProt O96017)
CSF1R = CSF1R (UniProt P07333)
CSK = CSK (UniProt P41240)
CSNK1A1 = CSNK1A1 (UniProt P48729)
CSNK1D = CSNK1D (UniProt P48730)
DDR1 = DDR1 (UniProt Q08345)
DYRK1B = DYRK1B (UniProt Q9Y463)
DYRK2 = DYRK2 (UniProt Q92630)

Measured: kinase-Nluc reporter destabilization hit call

COc1ccc(-c2cc3nccn3c(Nc3ncccc3C(N)=O)n2)cc1OC [BAY 61-3606 (dihydrochloride)]
inactive: CDK7; 2.5 µM 0 | CDK9; 2.5 µM 0 | CHEK2; 2.5 µM 0 | CSF1R; 2.5 µM 0 | CSK; 2.5 µM 0 | CSNK1A1; 2.5 µM 0 | CSNK1D; 2.5 µM 0 | DDR1; 2.5 µM 0 | DYRK1B; 2.5 µM 0 | DYRK2; 2.5 µM 0

Cc1cc(Nc2cc(N3CCN(C)CC3)nc(/C=C/c3ccccc3)n2)n[nH]1
inactive: CDK7; 2.5 µM 0 | CDK9; 2.5 µM 0 | CHEK2; 2.5 µM 0 | CSF1R; 2.5 µM 0 | CSK; 2.5 µM 0 | CSNK1A1; 2.5 µM 0 | CSNK1D; 2.5 µM 0 | DDR1; 2.5 µM 0 | DYRK1B; 2.5 µM 0 | DYRK2; 2.5 µM 0

CC(C)N(CCC(=O)c1ccc2ccccc2c1)Cc1ccccc1
inactive: CDK7; 10 µM 0 | CDK9; 10 µM 0 | CHEK2; 10 µM 0 | CSF1R; 10 µM 0 | CSK; 10 µM 0 | CSNK1A1; 10 µM 0 | CSNK1D; 10 µM 0 | DDR1; 10 µM 0 | DYRK1B; 10 µM 0 | DYRK2; 10 µM 0

Taken from the listing (2 entries):
COc1ccc(-c2cc3nccn3c(Nc3ncccc3C(N)=O)n2)cc1OC [BAY 61-3606 (dihydrochloride)]
inactive: CDK7; 2.5 µM 0 | CDK9; 2.5 µM 0 | CHEK2; 2.5 µM 0 | CSF1R; 2.5 µM 0 | CSK; 2.5 µM 0 | CSNK1A1; 2.5 µM 0 | CSNK1D; 2.5 µM 0 | DDR1; 2.5 µM 0 | DYRK1B; 2.5 µM 0 | DYRK2; 2.5 µM 0

Cc1cc(Nc2cc(N3CCN(C)CC3)nc(/C=C/c3ccccc3)n2)n[nH]1
inactive: CDK7; 2.5 µM 0 | CDK9; 2.5 µM 0 | CHEK2; 2.5 µM 0 | CSF1R; 2.5 µM 0 | CSK; 2.5 µM 0 | CSNK1A1; 2.5 µM 0 | CSNK1D; 2.5 µM 0 | DDR1; 2.5 µM 0 | DYRK1B; 2.5 µM 0 | DYRK2; 2.5 µM 0

Following part.

CCOc1cc2ncc(C#N)c(Nc3ccc(F)c(Cl)c3)c2cc1NC(=O)/C=C/CN(C)C [Pelitinib]
inactive: CDK7; 2.5 µM 0 | CDK9; 2.5 µM 0 | CHEK2; 2.5 µM 0 | CSF1R; 2.5 µM 0 | CSK; 2.5 µM 0 | CSNK1A1; 2.5 µM 0 | CSNK1D; 2.5 µM 0 | DDR1; 2.5 µM 0 | DYRK1B; 2.5 µM 0 | DYRK2; 2.5 µM 0

C=CC(=O)N1CCC([C@@H]2CCNc3c(C(N)=O)c(-c4ccc(Oc5ccccc5)cc4)nn32)CC1 [Zanubrutinib]
inactive: CDK7; 10 µM 0 | CDK9; 10 µM 0 | CHEK2; 10 µM 0 | CSF1R; 10 µM 0 | CSK; 10 µM 0 | CSNK1A1; 10 µM 0 | CSNK1D; 10 µM 0 | DDR1; 10 µM 0 | DYRK1B; 10 µM 0 | DYRK2; 10 µM 0

COc1cc2ncnc(Nc3ccc(F)c(Cl)c3)c2cc1OCCCN1CCOCC1 [Gefitinib]
inactive: CDK7; 10 µM 0 | CDK9; 10 µM 0 | CHEK2; 10 µM 0 | CSF1R; 10 µM 0 | CSK; 10 µM 0 | CSNK1A1; 10 µM 0 | CSNK1D; 10 µM 0 | DDR1; 10 µM 0 | DYRK1B; 10 µM 0 | DYRK2; 10 µM 0

Cc1cn(-c2cc(NC(=O)c3ccc(C)c(Nc4nccc(-c5cccnc5)n4)c3)cc(C(F)(F)F)c2)cn1 [Nilotinib]
inactive: CDK7; 2.5 µM 0 | CDK9; 2.5 µM 0 | CHEK2; 2.5 µM 0 | CSF1R; 2.5 µM 0 | CSK; 2.5 µM 0 | CSNK1A1; 2.5 µM 0 | CSNK1D; 2.5 µM 0 | DDR1; 2.5 µM 0 | DYRK1B; 2.5 µM 0 | DYRK2; 2.5 µM 0

Cc1cnc(Nc2ccc(OCCN3CCCC3)cc2)nc1Nc1cccc(S(=O)(=O)NC(C)(C)C)c1 [Fedratinib (hydrochloride hydrate)]
inactive: CDK7; 2.5 µM 0 | CDK9; 2.5 µM 0 | CHEK2; 2.5 µM 0 | CSF1R; 2.5 µM 0 | CSK; 2.5 µM 0 | CSNK1A1; 2.5 µM 0 | CSNK1D; 2.5 µM 0 | DDR1; 2.5 µM 0 | DYRK1B; 2.5 µM 0 | DYRK2; 2.5 µM 0

Nc1ncnc2n[nH]c(-c3ccc(Oc4ccccc4)cc3)c12 [Ibrutinib deacryloylpiperidine]
inactive: CDK7; 10 µM 0 | CDK9; 10 µM 0 | CHEK2; 10 µM 0 | CSF1R; 10 µM 0 | CSK; 10 µM 0 | CSNK1A1; 10 µM 0 | CSNK1D; 10 µM 0 | DDR1; 10 µM 0 | DYRK1B; 10 µM 0 | DYRK2; 10 µM 0

Cc1cc(Nc2cc(N3CCN(C)CC3)nc(/C=C/c3ccccc3)n2)n[nH]1 [ENMD-2076 (Tartrate)]
inactive: CDK7; 2.5 µM 0 | CDK9; 2.5 µM 0 | CHEK2; 2.5 µM 0 | CSF1R; 2.5 µM 0 | CSK; 2.5 µM 0 | CSNK1A1; 2.5 µM 0 | CSNK1D; 2.5 µM 0 | DDR1; 2.5 µM 0 | DYRK1B; 2.5 µM 0 | DYRK2; 2.5 µM 0

CCCCCC1CC1CC1CC1CCCCCCCC(=O)OC (stereo not given)
inactive: CDK7; 10 µM 0 | CDK9; 10 µM 0 | CHEK2; 10 µM 0 | CSF1R; 10 µM 0 | CSK; 10 µM 0 | CSNK1A1; 10 µM 0 | CSNK1D; 10 µM 0 | DDR1; 10 µM 0 | DYRK1B; 10 µM 0 | DYRK2; 10 µM 0

Fc1ccc(-c2nc(-c3ccc4ccccc4c3F)[nH]c2-c2ccncc2)cc1
inactive: CDK7; 10 µM 0 | CDK9; 10 µM 0 | CHEK2; 10 µM 0 | CSF1R; 10 µM 0 | CSK; 10 µM 0 | CSNK1A1; 10 µM 0 | CSNK1D; 10 µM 0 | DDR1; 10 µM 0 | DYRK1B; 10 µM 0 | DYRK2; 10 µM 0

CC(C)[C@@](C)(O)[C@@H]1CN(c2nc(-c3[nH]nc4ncccc34)c(F)cc2Cl)CCN1
inactive: CDK7; 10 µM 0 | CDK9; 10 µM 0 | CHEK2; 10 µM 0 | CSF1R; 10 µM 0 | CSK; 10 µM 0 | CSNK1A1; 10 µM 0 | CSNK1D; 10 µM 0 | DDR1; 10 µM 0 | DYRK1B; 10 µM 0 | DYRK2; 10 µM 0

Cc1cc2c(F)c(Oc3ncnn4cc(OC[C@@H](C)O)c(C)c34)ccc2[nH]1 [Brivanib]
inactive: CDK7; 10 µM 0 | CDK9; 10 µM 0 | CHEK2; 10 µM 0 | CSF1R; 10 µM 0 | CSK; 10 µM 0 | CSNK1A1; 10 µM 0 | CSNK1D; 10 µM 0 | DDR1; 10 µM 0 | DYRK1B; 10 µM 0 | DYRK2; 10 µM 0

Cn1cc(/C=C2\C(=O)Nc3cccnc32)c2ccccc21
inactive: CDK7; 10 µM 0 | CDK9; 10 µM 0 | CHEK2; 10 µM 0 | CSF1R; 10 µM 0 | CSK; 10 µM 0 | CSNK1A1; 10 µM 0 | CSNK1D; 10 µM 0 | DDR1; 10 µM 0 | DYRK1B; 10 µM 0 | DYRK2; 10 µM 0
